According to PubChem BioAssay AID244 (DTP/NCI, 2004):
The list does not hold the whole screen: it covers a few groups of compounds. Other doses and runs of a compound may be missing. T/C: endpoint of the treated group in % of that of the vehicle group. Where survival is the endpoint, this PubChem deposit counts one and a half times the control or more as active, and values a quarter to a half above the control carry no call in these data; other NCI protocols may use other cut-offs. Some entries show no survivor count and are marked so; the dose need not have been tolerated. Schedule codes are those of the source, taken here to give the interval after Q, in days (D) or hours (H), and the number of doses after X.

Test system: CD2F1 mice, Lymphoma 8 ip, survival T/C
Assay: NCI In Vivo Anticancer Drug Screen. Data for tumor model Lymphoma 8 (intraperitoneal) in CD2F1 (CDF1) mice
Details: T/C endpoint: survival time, mean or median, schedule: Q01DX010 (ip), vehicle: saline, higher T/C = longer survival
Procedure: The antitumor activity of compounds was measured in mice bearing transplantable tumors. Survival or tumor size were measured and the results are expressed as the measurement made in the treated group (T) divided by the measurement made in the vehicle treated control group (C). The tumor model used in this assay is Lymphoma 8 (intraperitoneal) in CD2F1 (CDF1) mice

In the case of NC(Cc1cccc(N(CCCl)CCCl)c1)C(=O)O (stereo not drawn), the T/C (dose: 0.63 mg/kg/injection) is reported as 118 % of control [survivor count not shown], the T/C (dose: 1.25 mg/kg/injection) is reported as 154 % of control [survivor count not shown] and the T/C (dose: 2.5 mg/kg/injection) is reported as 109 % of control [survivor count not shown].
